Measured values reported in patent US20110039721A1, “METHOD FOR PREDICTION ABOUT CARCINOGENICITY OF SUBSTANCE IN RODENT” (Chemicals Evaluation and Research Institute, priority 2007, published 2011).
Where a name gives a salt, the structure may show the parent alone.

System: mRNA expressed from the genes (A) to (D) in rat liver
Assay: Behavior of genes (mRNA expression level, oligo-DNA microarray) in rat liver after 28-day oral administration
Type: in vivo
Details: oral once daily 28 days
Experimental: A test solution was prepared by dissolving each of the carcinogens and the non-carcinogens shown in Tables 2 to 6 in the corresponding solvent shown in Tables 2 to 6. Each of the thus prepared test solutions and the solvents used for the preparation was administered by oral gavage to rats in each group. As the rats, male rats (F344 SPF rats) at 5 weeks of age obtained from Charles River Laboratories Japan, Inc. were used. The animals were divided into groups, each containing four individuals. The volume of the solvent administered to the vehicle control group was set to the same volume as that of the test solution administered to the carcinogen administration group or the non-carcinogen administration group. The administration of the test solution or the solvent was performed once daily for 28 days. Apiece was excised from the liver of each of the rats after a lapse of 28 days from the initiation of the administration, and the total RNA was extracted and purified.
The expression level of mRNA was compared between each of the chemical substance administration groups and the corresponding vehicle control group, and genes that satisfy the requirements described in (A) to (D) were selected, respectively.
The case where the expression level of mRNA in the carcinogen administration group or the non-carcinogen administration group is 1.5 times or more or 1/1.5 or less of the expression level of the corresponding mRNA expressed in the control group was determined to be significant. In this connection, the determination as to whether or not the change is significant was performed by taking into consideration the direction of increase or decrease in the expression level. In the case where the direction of increase or decrease is different as compared with the case where another carcinogen was administered, the change was determined to be not significant.

[1] = (C), Unigene Rn.120914, defined direction +

`CN(C)CCN(Cc1cccs1)c1ccccn1` [TS053, Methapyrilene HCl] was tested, and the “Behavior of gene caused by administration of chemical substance, Gene No. 4846” value ((A), Unigene Rn.144554, defined direction +) was “+”, the “Behavior of gene caused by administration of chemical substance, Gene No. 4218” value ((A), Unigene Rn.167075, defined direction +, significant = 1.5 times or more or 1/1.5 or less of control) was “+” and the “Behavior of gene caused by administration of chemical substance, Gene No. 2026” value ((A), Unigene Rn.167075, defined direction −) was “+”. For the same compound, the “Behavior of gene caused by administration of chemical substance, Gene No. 6182” value ((A), Unigene Rn.5834, defined direction +) was “+”, the “Behavior of gene caused by administration of chemical substance, Gene No. 5600” value ((A), Unigene Rn.9836, defined direction +) was “+” and the “Behavior of gene caused by administration of chemical substance, Gene No. 1494” value ((B), Unigene Rn.1430, defined direction −) was “+”. The “Behavior of gene caused by administration of chemical substance, Gene No. 2045” value ((B), Unigene Rn.19329, defined direction +) was “−”, the “Behavior of gene caused by administration of chemical substance, Gene No. 2203” value ((B), Unigene Rn.21240, defined direction +) was “−” and the “Behavior of gene caused by administration of chemical substance, Gene No. 533” value ((C), Unigene Rn.106184, defined direction +) was “+”. The “Behavior of gene caused by administration of chemical substance, Gene No. 725” value ((C), Unigene Rn.108075, defined direction −) was “−”, the “Behavior of gene caused by administration of chemical substance, Gene No. 1163” value ((C), Unigene Rn.11766, defined direction +) was “−” and the “Behavior of gene caused by administration of chemical substance, Gene No. 4973” value ((C), Unigene Rn.118529, defined direction −) was “+”. For the same compound, the “Behavior of gene caused by administration of chemical substance, Gene No. 4095” value ((C), Unigene Rn.119024, defined direction −) was “+”, the “Behavior of gene caused by administration of chemical substance, Gene No. 1334” value [1] was “−” and the “Behavior of gene caused by administration of chemical substance, Gene No. 6620” value [1] was “−”. For the same compound, the “Behavior of gene caused by administration of chemical substance, Gene No. 6303” value ((C), Unigene Rn.123063, defined direction −) was “+”, the “Behavior of gene caused by administration of chemical substance, Gene No. 5878” value ((C), Unigene Rn.143213, defined direction −) was “+” and the “Behavior of gene caused by administration of chemical substance, Gene No. 1131” value ((C), Unigene Rn.144946, defined direction −) was “−”. The “Behavior of gene caused by administration of chemical substance, Gene No. 1562” value ((C), Unigene Rn.14744, defined direction −) was “+”, the “Behavior of gene caused by administration of chemical substance, Gene No. 1741” value ((C), Unigene Rn.1647, defined direction −) was “+” and the “Behavior of gene caused by administration of chemical substance, Gene No. 893” value ((C), Unigene Rn.164817, defined direction +) was “+”. For the same compound, the “Behavior of gene caused by administration of chemical substance, Gene No. 6026” value ((C), Unigene Rn.167685, defined direction −) was “+”, the “Behavior of gene caused by administration of chemical substance, Gene No. 154” value ((C), Unigene Rn.185941, defined direction −) was “+” and the “Behavior of gene caused by administration of chemical substance, Gene No. 1993” value ((C), Unigene Rn.18728, defined direction −) was “+”. The “Behavior of gene caused by administration of chemical substance, Gene No. 813” value ((C), Unigene Rn.201760, defined direction +) was “−”, the “Behavior of gene caused by administration of chemical substance, Gene No. 2494” value ((C), Unigene Rn.23969, defined direction +) was “+” and the “Behavior of gene caused by administration of chemical substance, Gene No. 2546” value ((C), Unigene Rn.24561, defined direction −) was “+”. For the same compound, the “Behavior of gene caused by administration of chemical substance, Gene No. 3776” value ((C), Unigene Rn.43232, defined direction −) was “+”, the “Behavior of gene caused by administration of chemical substance, Gene No. 3929” value ((C), Unigene Rn.4620, defined direction +) was “−” and the “Behavior of gene caused by administration of chemical substance, Gene No. 1119” value ((C), Unigene Rn.9757, defined direction +) was “+”. For the same compound, the “Behavior of gene caused by administration of chemical substance, Gene No. 6742” value ((C), Unigene Rn.9779, defined direction +) was “−”, the “Behavior of gene caused by administration of chemical substance, Gene No. 5634” value ((C), Unigene Rn.9862, defined direction −) was “+” and the “Behavior of gene caused by administration of chemical substance, Gene No. 5726” value ((D), Unigene Rn.9939, defined direction −) was “−”.
